No constants are given. Whether binding was seen depends on the method and setting. Binding seen in cells or lysates may run through a third protein. Some binding calls cover weakened binding; strength is not graded here.

Amino acid sequences for entries named in this document (tags omitted). Residues count along the entry.
UniProt P21796: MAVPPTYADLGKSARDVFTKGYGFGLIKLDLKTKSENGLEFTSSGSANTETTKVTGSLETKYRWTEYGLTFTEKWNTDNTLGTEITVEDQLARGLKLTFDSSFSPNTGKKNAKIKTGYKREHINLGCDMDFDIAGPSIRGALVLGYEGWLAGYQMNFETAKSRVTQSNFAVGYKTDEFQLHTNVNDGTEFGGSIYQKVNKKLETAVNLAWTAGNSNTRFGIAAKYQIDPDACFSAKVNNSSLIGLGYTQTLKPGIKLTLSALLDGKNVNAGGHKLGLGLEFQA
UniProt P38646, residues 47-679: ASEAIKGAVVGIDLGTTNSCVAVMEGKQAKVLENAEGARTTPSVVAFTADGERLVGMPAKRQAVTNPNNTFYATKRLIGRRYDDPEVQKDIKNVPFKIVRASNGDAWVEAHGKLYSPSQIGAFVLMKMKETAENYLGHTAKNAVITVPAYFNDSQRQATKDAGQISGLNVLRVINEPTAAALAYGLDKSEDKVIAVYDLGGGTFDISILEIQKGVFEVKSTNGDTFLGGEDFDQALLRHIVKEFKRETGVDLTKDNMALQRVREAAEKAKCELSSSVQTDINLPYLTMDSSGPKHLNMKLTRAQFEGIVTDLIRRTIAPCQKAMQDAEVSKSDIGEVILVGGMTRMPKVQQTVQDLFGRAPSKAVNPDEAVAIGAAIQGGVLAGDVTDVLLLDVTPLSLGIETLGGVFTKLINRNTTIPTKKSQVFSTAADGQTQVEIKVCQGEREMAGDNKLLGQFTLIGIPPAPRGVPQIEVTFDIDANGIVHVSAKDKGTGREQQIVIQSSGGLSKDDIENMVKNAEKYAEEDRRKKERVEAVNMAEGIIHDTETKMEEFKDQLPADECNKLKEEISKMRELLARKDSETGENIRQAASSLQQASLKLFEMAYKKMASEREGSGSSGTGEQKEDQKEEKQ

For this test, the target named is voltage-dependent anion channel 1 (VDAC1), human, in SH-SY5Y cells (human (endogenous in SH-SY5Y)) (UniProt P21796). Put plainly: co-IP; SH-SY5Y cells lysed in RIPA buffer and sonicated; 2 mg protein with 4 ug anti-VDAC1 polyclonal antibody overnight at 4 C, protein A/G agarose beads 4-6 h, washed thrice with cold PBS, western blot; cells in normal or high glucose (25 mM, 48 h), with or without lentiviral SIRT3 overexpression. (Immunoblotting shows a protein as a band on a membrane.)

For the substance “glucose-regulated protein 75 (GRP75), human, in SH-SY5Y cells (from UniProt P38646 47-679)”, the binding result is “binds”.

The values are drawn from PMC10362714.
